Data from PubChem BioAssay AID540275 (National Center for Advancing Translational Sciences (NCATS), 2011).
Among all 320,000 compounds or so, about 620 (0.19%) were called active. The shares of active, inactive and inconclusive entries below differ from those in the screen. Rule as the data show it: active = activation above about 80%; inconclusive = between about 30% and that limit; inactive = weaker than that.

Sequences of proteins named here, by UniProt entry; tags and fusion partners are left off.
UniProt Q8NER1, whole entry, looked up: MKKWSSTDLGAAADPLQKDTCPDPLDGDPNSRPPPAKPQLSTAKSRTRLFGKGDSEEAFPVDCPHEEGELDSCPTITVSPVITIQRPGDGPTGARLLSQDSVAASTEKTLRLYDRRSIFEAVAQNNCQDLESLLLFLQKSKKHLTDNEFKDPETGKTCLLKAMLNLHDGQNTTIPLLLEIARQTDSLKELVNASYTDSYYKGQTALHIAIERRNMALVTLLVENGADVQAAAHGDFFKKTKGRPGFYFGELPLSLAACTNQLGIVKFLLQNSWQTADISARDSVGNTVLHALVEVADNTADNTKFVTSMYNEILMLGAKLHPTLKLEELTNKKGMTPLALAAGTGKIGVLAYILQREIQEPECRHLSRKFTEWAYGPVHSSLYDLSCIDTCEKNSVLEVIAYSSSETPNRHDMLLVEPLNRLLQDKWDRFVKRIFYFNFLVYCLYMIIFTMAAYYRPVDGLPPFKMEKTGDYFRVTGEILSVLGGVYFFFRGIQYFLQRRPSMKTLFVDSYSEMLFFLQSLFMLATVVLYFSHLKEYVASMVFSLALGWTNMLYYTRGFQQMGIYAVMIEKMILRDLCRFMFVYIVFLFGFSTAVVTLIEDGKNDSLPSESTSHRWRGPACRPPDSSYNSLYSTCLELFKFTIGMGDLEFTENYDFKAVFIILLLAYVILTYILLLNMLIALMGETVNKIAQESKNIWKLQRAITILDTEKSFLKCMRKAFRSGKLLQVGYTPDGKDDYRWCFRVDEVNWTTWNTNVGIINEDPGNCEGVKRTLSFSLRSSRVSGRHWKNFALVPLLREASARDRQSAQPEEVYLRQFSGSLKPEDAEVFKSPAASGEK

target: Transient receptor potential cation channel subfamily V member 1 (Homo sapiens) (UniProt Q8NER1); assay: HTS Assay for Compounds that Act as Agonists of the Vanilloid Receptor 1; conditions: TRPV1-expressing cells, Fluo-8 calcium influx, agonist mode; at 8.33 µM, stronger effect = higher value; also: 0% is about no effect
Outline: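 Cells expressing TRPV1 were dye-loaded with Fluo-8 and read kinetically: 10 s baseline, 3 min after compound (agonist portion), then 2 min after EC20 capsaicin (allosteric enhancer portion). Calcium-bound dye fluorescence at 480/520 nm.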

SMILES	activation
COc1ccc(C(=O)/C=C/c2ccccc2)c(O)c1	inconclusive: 48.9%
Cc1cccc(OCCCC(=O)NC2CCCCC2)c1	inconclusive: 51.7%
Cc1ccc(CNC(=O)c2cc3c(=O)n(C)c4ccccc4c3n2C)o1	inactive: -2.94%
O=C(Cn1cc(C(=O)C(F)(F)F)c2ccccc21)NCc1ccco1	inconclusive: 39.8%
NC(=O)NCCCC(NC(=O)c1ccc(C#CC2(O)CCCCC2)cc1)C(=O)O (configuration not stated)	inactive: -7.05%
CCOCC(=O)N1CCN(c2ccc(F)cc2)CC1	inactive: -0.0521%
Cc1[nH]c(N=Nc2ccccc2)nc1N=Nc1ccccc1	inconclusive: 59%
CN(C(=S)NC(=O)c1ccc(Cl)cc1)C1CCCCC1	inconclusive: 32.5%
CN(C)c1ccc(/C=N\NC(=O)c2cccc3cc[nH]c23)cc1	inconclusive: 32.6%
COc1cccc(OC)c1C(=O)NC(=S)NCc1cccnc1	inactive: 1.16%
COc1cccc(N2CCN(C(=O)c3ccc4ccccc4c3)CC2)c1	inconclusive: 40.6%
Cc1ccc(COc2cccc3c2CCN(Cc2ccc(F)cc2)C3=O)cc1	inconclusive: 46.7%
CCC(=O)NC(c1cccs1)c1ccc2cccnc2c1O (configuration not stated)	inactive: -0.156%
Cc1ccc(CNc2cc(-c3nn4c(C)nnc4s3)ccc2C)s1	inconclusive: 55.9%
CCOC(=O)C1CCCN(c2c(C(=O)c3ccccc3)cnc3ccc(OC)cc23)C1 (configuration not stated)	inconclusive: 31.8%
CCOc1cc(C(=O)Nc2cc(C)on2)cc(OCC)c1OCC	inconclusive: 46.4%
COc1nc(NCCc2ccc(OC)c(OC)c2)nc(Nc2ccccc2)n1	inconclusive: 48.1%
Cc1cc(OC(C)C(=O)Nc2ccccc2C(=O)N2CCCC2)ccc1Cl (configuration not stated)	inconclusive: 38.2%
COc1ccc(OC)c(/C=N/NC(=O)c2csc3ccccc23)c1	inactive: -1.42%
CC(C)(C)OC(=O)N[C@H](C(=O)OC(C)(C)C)c1ccc(C(F)(F)F)cc1	inconclusive: 51.2%
COc1ccc(C(=O)/C=C2\Sc3ccccc3N2C)cc1	inconclusive: 45.5%
CC(C)(C)c1ccc(OCCC(=O)OCC(=O)NC2CCCCC2)cc1	inconclusive: 31.5%
O=C(Nc1nc(-c2cccs2)cs1)c1ccc([N+](=O)[O-])o1	inconclusive: 41.8%

SMILES	activation
c1ccc(CNc2nc(N3CCN(Cc4ccccc4)CC3)nc3ccccc23)cc1	inactive: 2.24%
Cc1ccc(NC(=O)c2ccc3c(c2)OCCO3)cc1C	active: 85.5%
CCc1ccc(NC(=O)c2cccnc2)cc1	inconclusive: 41.3%
CCCCCSc1nc2c(c(=O)[nH]c(=O)n2C)n1CCc1ccccc1	inconclusive: 33.7%
Cc1c(C(=O)OCC(=O)NCc2ccco2)cccc1[N+](=O)[O-]	inactive: 3.87%
CC1(C)C(=O)Nc2ccccc2N1C(=O)COC(=O)c1cc([N+](=O)[O-])ccc1N	inactive: 0.776%
COc1cc(NC(=O)Cc2ccccc2)ccc1NC(=O)c1ccco1	inconclusive: 31.1%
Cc1ccc(NC(=O)CN(C)S(=O)(=O)c2ccc(Br)s2)cc1F	inconclusive: 47.1%
C/C(=N\Nc1ccccn1)c1ccc(OC(F)F)cc1	inconclusive: 53.1%
O=C(COc1ccc2c(C(F)(F)F)cc(=O)oc2c1)NCc1cccs1	inconclusive: 38.1%
O=C1c2[nH]nc(-c3ccccc3O)c2C(c2ccccc2)N1Cc1ccco1 (configuration not stated)	inactive: 1.66%
O=C(NC(=S)Nc1nc(-c2ccccc2)cs1)c1cccnc1	inactive: 0.821%
CN(CC(=O)NC(=O)NCc1ccccc1)Cc1cccc(Cl)c1Cl	inconclusive: 44.7%
Cc1ccc(C(=O)NCCc2ccccc2)cc1	active: 83.7%
COc1cc2c(cc1OC)C(C)N(C(=O)Nc1ccc(F)cc1)CC2 (configuration not stated)	inconclusive: 33.9%
COc1cc(CN(C(=O)c2ccco2)c2ccc(C)cc2)ccc1O	inconclusive: 44.8%
CC(C)Cn1c(SCC#N)nc2ccccc2c1=O	inconclusive: 52.5%
Cc1ccc(C(=O)Nc2cccc(-c3nc4ncccc4o3)c2)cc1	inconclusive: 40.4%
COCc1c(C(=O)Nc2ccc3nc(N4CCOCC4)sc3c2)oc2ccccc12	inactive: -6.13%
O=C(Nc1ccccc1N1CCCCC1)c1ccccc1F	inactive: -2.09%
CCC1CN(C(=O)Nc2ccc(C)cc2)c2cc(C)ccc2O1 (configuration not stated)	inconclusive: 33.9%
COc1ccc(CCNC(=O)c2oc3ccc(OC)cc3c2C)cc1	inactive: 19.4%
Cc1nc2scc(C)n2c(=O)c1S(=O)(=O)NCc1ccc(F)cc1	inactive: 4.19%

SMILES	activation
O=C(Nc1ccc(Cl)c(Cl)c1)c1ccc(Cl)c(Cl)c1	inconclusive: 63.3%
COC(=O)C1=C(C)N(C)C(=O)NC1c1cccc2ccccc12 (configuration not stated)	inactive: 0.808%
CCOc1cc(S(=O)(=O)n2ccc(C)n2)ccc1Br	inactive: 7.21%
O=C1C=C(O)c2cccc3cccc1c23	inactive: -0.648%
Oc1cccc(/C=N/Nc2cc(N3CCOCC3)nc(N3CCOCC3)n2)c1	active: 93.1%
CC(OC(=O)C1CCC1)C(=O)Nc1cc(Cl)cc(Cl)c1 (configuration not stated)	inconclusive: 39%
NC(=O)c1cccc(-c2cc(Nc3ccc(OC(F)(F)F)cc3)ncn2)c1	inconclusive: 74.2%
CCOC(=O)C1CCN(c2cc3c(cc2NC(=O)c2ccccc2OCC)n(C)c(=O)n3C)CC1	inconclusive: 70%
COc1ccc(Nc2nc(NC(C)(C)C)nc(N3CCOCC3)n2)c(OC)c1	inconclusive: 51.6%
CCn1cc(C(=O)N2CCN(c3cccc(C)c3C)CC2)c(=O)c2ccc(C)nc21	inactive: 0.75%
O=C(COC(=O)c1ccccc1C(=O)c1ccccc1)NCc1ccc(F)cc1	inconclusive: 41.7%
Cc1ccc(S(=O)(=O)C(CCC(=O)N2CCOCC2)S(=O)(=O)c2ccc(C)cc2)cc1	inconclusive: 64.4%
CCOc1cc(C)c(C(C)C)cc1S(=O)(=O)NCc1ccccn1	inconclusive: 37.8%
CN(Cc1ccccc1)S(=O)(=O)c1ccc(NS(=O)(=O)Cc2ccccc2)cc1	inconclusive: 69.9%
Cc1cc(Cl)ccc1OCC(=O)Nc1ccc2oc(=O)ccc2c1	inactive: 19.3%
Cc1ccccc1NS(=O)(=O)c1cc(C(=O)N2CCc3ccccc3C2)ccc1C	inactive: 1.81%
Cc1ncsc1CCC(=O)N1CCCC(Nc2ccc(F)c(F)c2)C1 (configuration not stated)	inconclusive: 54.1%
COC(=O)c1sc(C(F)(F)F)c(-c2ccccc2)c1S(=O)(=O)N(C)C	inconclusive: 39.6%
N#C/C(=C\c1cccnc1)c1nc2c(s1)CCCC2	inconclusive: 30.6%
Cn1c(=O)n(C)c2cc(NC(=O)CCl)ccc21	inactive: 0.143%
Cc1ccc(C(C)C)c(OCC(=O)Nc2ccccc2N2CCN(C)CC2)c1	inconclusive: 31.9%
COc1cccc(C2c3[nH]c4ccccc4c3C[C@H]3C(=O)N(c4ccccc4C(=O)NCCCN4CCOCC4)C(=O)N23)c1 (some centres not stated)	inactive: 6.79%
CCOc1ccc(C(=O)NCC(=O)NCC2CCCCC2)cc1OCC	inactive: -0.498%

SMILES	activation
CCc1cc2cc3c(cc2nc1SCC(=O)N1CCN(C(=O)c2ccco2)CC1)OCO3	inconclusive: 33%
CC1(C)Cc2c(C#N)c(SCc3ccccc3)nc(N3CCOCC3)c2CO1	inconclusive: 65%
O=C(COc1ccc(-c2ccccc2)cc1)Nc1cccnc1	inconclusive: 52.1%
CCN1CCN(c2ncnc3c2c(-c2ccccc2)cn3-c2ccc(F)cc2)CC1	inconclusive: 31.4%
Cn1ncc(Cl)c1C(=O)Nc1cccc(Cl)c1	inconclusive: 37%
COc1ccc(C2=CC(=O)C[C@H](c3ccc(F)cc3)C2)c(F)c1F	inconclusive: 44.2%
COc1ccc(CCn2c(=N)c(C(=O)NCC3CCCO3)cc3c(=O)n4ccccc4nc32)cc1 (configuration not stated)	inconclusive: 76%
CC(C)(C)SCCNC(=O)CSCc1ccc([N+](=O)[O-])cc1	inconclusive: 49.5%
CO/N=C(/CNC(=O)c1cccc(Cl)c1)c1ccc(Cl)cc1	inconclusive: 40.5%
Cc1cccn2c(=O)c3cc(C(=O)NCCN4CCOCC4)c(=N)n(Cc4cccnc4)c3nc12	inactive: 22.9%
c1csc(-c2nnc(NC3CCCCC3)c3ccccc23)c1	inconclusive: 44.5%
Cc1ncc(CC(=O)n2cc(C(=O)c3cc(Cl)ccc3O)cn2)s1	inconclusive: 51.1%
Cc1cc(-c2ccccc2)nc(N/N=C/c2ccccc2)n1	inconclusive: 48%
Clc1ccc(Cn2nnc(-c3ccc(CN4CCOCC4)cc3)n2)cc1	inconclusive: 36.2%
CC(C)Cn1c(/C=C/c2ccccc2)nc2ccccc21	inconclusive: 52.7%
COc1ccc(C(=O)N/N=C/c2cc(Br)ccc2O)cc1OC	inactive: 8.28%
COc1ccc2oc(C(=O)c3ccccc3)c(NC(=O)CN3CCN(C)CC3)c2c1	inactive: 16.5%
CC1(C)Cc2c(cnn2-c2ccccc2)C(NC(=O)C2(C(N)=O)CC2)C1 (configuration not stated)	inconclusive: 42.7%
COc1ccc(CNCc2ccc(C(F)(F)F)cc2)cc1OC	inactive: -0.458%
CCOc1ccc(CN(C)CC(=O)NCc2ccc(F)cc2)cc1	inconclusive: 50.9%
c1ccc(-c2nnc3sc(-c4cc5ccccc5o4)nn23)cc1	inconclusive: 30.4%
COc1ccc(/C=C/C(=O)Nc2ccc3c(c2)CCC3)cc1OC	inactive: 3.03%
COC(=O)c1cccc(NC(=O)c2cnoc2C)c1	inconclusive: 32%
